Reference: PubChem BioAssay AID1224826 (NIAID, 2016)
Screen: 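Regulators of Tlr4 signalling leading to Tnf-alpha expression in macrophages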 (primary screen). Cells: RAW264.7 G9 macrophages from mouse bearing reporters for p65 (GFP) and the Tnf promoter (mCherry). Reagent: siRNA pool against mouse genes, 100 nM. Timing: 16 h of LPS stimulation, after 2 days of siRNA transfection. Treatment: bacterial lipopolysaccharide (Salmonella minnesota R595), 10 ng/ml. Read-out: 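Imaged Tnf reporter mCherry in nuclei, minus background, normalised per plate to the median and expressed as robust z-scores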. Scale: Tnf reporter robust z-score: higher = stronger Tnf promoter reporter signal after LPS; Tnf reporter intensity: higher = stronger Tnf promoter reporter signal. Call rule: 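Called active when robust z-score is at most -1.3, matching the median of the Tlr4 knock-down control, or over 3; control wells and wells with under 50 cells never active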. Meaning of the calls: active = Tnf reporter clearly lowered or raised; inactive = no clear change in Tnf reporter.
Shown is one part, drawn at random, of about 17,000 deposited reagents. About 1,110 of all reagents (6.6%) count as active. 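Active means lowered or raised reporter signal; replicate intensities are raw and not normalised per plate.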 Unmarked entries are inactive.

| gene | PubChem SID | Tnf reporter robust z-score | fewer than 50 cells in well | Tnf reporter intensity, replicate 1 | Tnf reporter intensity, replicate 2 |
| --- | --- | --- | --- | --- | --- |
| Wdr33 (WD repeat domain 33) | SID315474937 | 0.5 | enough cells in well | 319 | 86.4 |
| 9330154K18Rik (RIKEN cDNA 9330154K18 gene) | SID315481175 | -0.3 | enough cells in well | 173 | 158 |
| Or5b21 (olfactory receptor family 5 subfamily B member 21) | SID315480349 | -0.85 | enough cells in well | 135 | 81.5 |
| Ncoa6 (nuclear receptor coactivator 6) | SID315471513 | 0.42 | enough cells in well | 351 | 193 |
| Muc4 (mucin 4) | SID315477109 | 2.93 | enough cells in well | 342 | 271 |
| Muc4 (mucin 4) | SID315477110 | – | fewer than 50 cells per well; well left out of calls | 189 | 32.4 |
| Aldh6a1 (aldehyde dehydrogenase family 6, subfamily A1) | SID315476459 | -0.29 | enough cells in well | 156 | 147 |
| Elovl4 (ELOVL fatty acid elongase 4) | SID315475848 | -0.2 | enough cells in well | 187 | 299 |
| Nlrp9c (NLR family, pyrin domain containing 9C) | SID315481599 | 0.03 | enough cells in well | 267 | 208 |
| Tdrd3 (tudor domain containing 3) | SID315478249 | -0.77 | enough cells in well | 88.2 | 74.3 |
| Syk (spleen tyrosine kinase) | SID315469547 | 0.31 | enough cells in well | 194 | 90.8 |
| Stra8 (stimulated by retinoic acid gene 8) | SID315469513 | 0.36 | enough cells in well | 123 | 102 |
| Slc27a5 | SID315470428 | 0.1 | enough cells in well | 118 | 90.2 |
| Ghdc (GH3 domain containing) | SID315475731 | -0.32 | enough cells in well | 125 | 199 |
| Siae (sialic acid acetylesterase) | SID315470074 | 1.21 | enough cells in well | 169 | 97.2 |
| Entrep2 (endosomal transmembrane epsin interactor 2) | SID315474103 | 0.81 | enough cells in well | 231 | 181 |
| Gsta4 (glutathione S-transferase, alpha 4) | SID315467057 | -2.02 (active) | enough cells in well | 116 | 26.5 |
| Slc25a40 | SID315481143 | 0.61 | enough cells in well | 222 | 184 |
| Pibf1 (progesterone immunomodulatory binding factor 1) | SID315470930 | -0.84 | enough cells in well | 144 | 115 |
| Actr10 (ARP10 actin-related protein 10) | SID315471540 | -0.42 | enough cells in well | 98.3 | 157 |
| Mapk11 (mitogen-activated protein kinase 11) | SID315468696 | -0.21 | enough cells in well | 161 | 169 |
| Tyw3 (tRNA-yW synthesizing protein 3 homolog (S. cerevisiae)) | SID315477604 | -0.33 | enough cells in well | 179 | 110 |
| Zfp764l1 (zinc finger protein 764 like 1) | SID315476291 | – | fewer than 50 cells per well; well left out of calls | 54.3 | 43.2 |
| Or6n2 (olfactory receptor family 6 subfamily N member 2) | SID315480364 | 1.46 | enough cells in well | 120 | 210 |
| Nrsn1 (neurensin 1) | SID315470009 | -0.55 | enough cells in well | 97.8 | 84.3 |
| Pdia6 (protein disulfide isomerase associated 6) | SID315474351 | 0.85 | enough cells in well | 297 | 294 |
| Gm38410 (predicted gene, 38410) | SID315481500 | -1.83 (active) | enough cells in well | 54.8 | 86.4 |
| Ift70a1 (intraflagellar transport 70A1) | SID315475625 | – | fewer than 50 cells per well; well left out of calls | 161 | 55.5 |
| Snap25 (synaptosomal-associated protein 25) | SID315469352 | 5.63 (active) | enough cells in well | 305 | 34 |
| Cxcl15 (C-X-C motif chemokine ligand 15) | SID315469146 | -1.01 | enough cells in well | 119 | 114 |
| Hnrnph1 (heterogeneous nuclear ribonucleoprotein H1) | SID315471951 | -1.82 (active) | enough cells in well | 108 | 54.1 |
| 5730455P16Rik (RIKEN cDNA 5730455P16 gene) | SID315474091 | 1.13 | enough cells in well | 203 | 235 |
| Vmn2r81 (vomeronasal 2, receptor 81) | SID315477974 | -0.86 | enough cells in well | 172 | 109 |
| Cebpa (CCAAT/enhancer binding protein alpha) | SID315465928 | – | fewer than 50 cells per well; well left out of calls | 97.2 | 91.8 |
| Mmp20 (matrix metallopeptidase 20 (enamelysin)) | SID315470750 | -0.33 | enough cells in well | 224 | 191 |
| Or6b2 (olfactory receptor family 6 subfamily B member 2) | SID315480646 | 1.04 | enough cells in well | 249 | 160 |
| Cct4 (chaperonin containing TCP1 subunit 4) | SID315465830 | 0.51 | enough cells in well | 324 | 211 |
| Rnaset2b (ribonuclease T2B) | SID315473448 | -1.34 (active) | enough cells in well | 163 | 116 |
| Pnkp (polynucleotide kinase 3'- phosphatase) | SID315471978 | 0.17 | enough cells in well | 179 | 197 |
| Ptprf (protein tyrosine phosphatase receptor type F) | SID315468812 | 0.04 | enough cells in well | 323 | 202 |
| Immt (inner membrane protein, mitochondrial) | SID315475351 | 1.48 | enough cells in well | 264 | 213 |
| Krtap6-1 (keratin associated protein 6-1) | SID315467704 | 0.5 | enough cells in well | 204 | 168 |
| Ndufv2 (NADH:ubiquinone oxidoreductase core subunit V2) | SID315474643 | 0.5 | enough cells in well | 326 | 226 |
| Ensa (endosulfine alpha) | SID315471397 | -0.43 | enough cells in well | 219 | 112 |
| Minpp1 (multiple inositol polyphosphate histidine phosphatase 1) | SID315467925 | -0.85 | enough cells in well | 185 | 149 |
| Atp6v1h (ATPase, H+ transporting, lysosomal V1 subunit H) | SID315476719 | 0.06 | enough cells in well | 159 | 151 |
| Nr1h4 (nuclear receptor subfamily 1, group H, member 4) | SID315469070 | 0.57 | enough cells in well | 412 | 119 |
| Smtnl1 (smoothelin-like 1) | SID315473602 | -0.03 | enough cells in well | 279 | 11.3 |
| Pop1 | SID315473191 | 2.83 | enough cells in well | 285 | 221 |
| Fmo4 (flavin containing monooxygenase 4) | SID315478513 | 0.21 | enough cells in well | 300 | 230 |
| Or1n1b (olfactory receptor family 1 subfamily N member 1B) | SID315480563 | 0.56 | enough cells in well | 242 | 124 |
| Psma6 (proteasome subunit alpha 6) | SID315470417 | – | fewer than 50 cells per well; well left out of calls | 147 | 157 |
| Or13c3 (olfactory receptor family 13 subfamily C member 3) | SID315480465 | 0.85 | enough cells in well | 223 | 162 |
| Csrnp1 (cysteine-serine-rich nuclear protein 1) | SID315477928 | 0.83 | enough cells in well | 188 | 204 |
| Ddr1 (discoidin domain receptor family, member 1) | SID315465723 | 0.63 | enough cells in well | 298 | 140 |
| Kdm6a (lysine (K)-specific demethylase 6A) | SID315469960 | 1.95 | enough cells in well | 177 | 164 |
| Glyctk (glycerate kinase) | SID315479271 | -0.38 | enough cells in well | 155 | 128 |
| Or8g35 (olfactory receptor family 8 subfamily G member 35) | SID315479946 | 0.56 | enough cells in well | 167 | 166 |
| C1qtnf9 (C1q and tumor necrosis factor related protein 9) | SID315479421 | -0.6 | enough cells in well | 203 | 89.3 |
| Mrpl28 (mitochondrial ribosomal protein L28) | SID315473580 | -0.87 | enough cells in well | 185 | 146 |
| Dusp21 (dual specificity phosphatase 21) | SID315474749 | – | fewer than 50 cells per well; well left out of calls | 168 | 107 |
| Scn9a (sodium channel, voltage-gated, type IX, alpha) | SID315469121 | 0.02 | enough cells in well | 139 | 118 |
| Fahd2a (fumarylacetoacetate hydrolase domain containing 2A) | SID315473421 | -0.17 | enough cells in well | 136 | 153 |
| Ca2 (carbonic anhydrase 2) | SID315465757 | 0.44 | enough cells in well | 183 | 163 |
| Akap4 (A kinase anchor protein 4) | SID315465372 | 0.45 | enough cells in well | 219 | 188 |
| Pcsk1n (proprotein convertase subtilisin/kexin type 1 inhibitor) | SID315470738 | -0.29 | enough cells in well | 150 | 118 |
| Celf5 (CUGBP, Elav-like family member 5) | SID315481122 | – | fewer than 50 cells per well; well left out of calls | 241 | 40 |
| Abca12 (ATP-binding cassette, sub-family A member 12) | SID315475011 | – | fewer than 50 cells per well; well left out of calls | 219 | 103 |
| Zfp148 (zinc finger protein 148) | SID315470096 | 0.55 | enough cells in well | 275 | 269 |
| Pnpo (pyridoxine 5'-phosphate oxidase) | SID315476384 | 0.74 | enough cells in well | 299 | 194 |
| Fmnl3 (formin-like 3) | SID315470024 | -0.2 | enough cells in well | 244 | 119 |
| Rnf24 (ring finger protein 24) | SID315470921 | 2.15 | enough cells in well | 204 | 237 |
| Lpar5 (lysophosphatidic acid receptor 5) | SID315481806 | -1.32 (active) | enough cells in well | 142 | 123 |
| Cdc42ep2 (CDC42 effector protein 2) | SID315476428 | -0.63 | enough cells in well | 109 | 166 |
| Srp19 (signal recognition particle 19) | SID315472403 | 0.32 | enough cells in well | 107 | 114 |

Already shown: entries from further up.
| gene | PubChem SID | Tnf reporter robust z-score | fewer than 50 cells in well | Tnf reporter intensity, replicate 1 | Tnf reporter intensity, replicate 2 |
| --- | --- | --- | --- | --- | --- |
| Or13c3 (olfactory receptor family 13 subfamily C member 3) | SID315480465 | 0.85 | enough cells in well | 223 | 162 |
| Csrnp1 (cysteine-serine-rich nuclear protein 1) | SID315477928 | 0.83 | enough cells in well | 188 | 204 |
| Ddr1 (discoidin domain receptor family, member 1) | SID315465723 | 0.63 | enough cells in well | 298 | 140 |
| Kdm6a (lysine (K)-specific demethylase 6A) | SID315469960 | 1.95 | enough cells in well | 177 | 164 |
| Glyctk (glycerate kinase) | SID315479271 | -0.38 | enough cells in well | 155 | 128 |
| Or8g35 (olfactory receptor family 8 subfamily G member 35) | SID315479946 | 0.56 | enough cells in well | 167 | 166 |
| C1qtnf9 (C1q and tumor necrosis factor related protein 9) | SID315479421 | -0.6 | enough cells in well | 203 | 89.3 |
